For at least one compound, name, drawing or mass did not settle the structure. Positions of bridges follow the written chain, without caps; N, C: chain ends. Non-standard residues stand in square brackets, D forms with d. Residues, ends and D or L forms follow the SMILES beside them. Triazole bridges read from a SMILES are 1,4-linked. Phe(4-guanidino) = N=C(N)Nc1ccc(C[C@H](N)C(=O)O)cc1; Aha = [N-]=[N+]=NCC[C@H](N)C(=O)O; Pra = C#CC[C@H](N)C(=O)O
Key:
KRAS (WT) = KRAS (WT) (Homo sapiens, UniProt P01116); experiment: EC50 for KRAS (WT); assay type: binding
KRAS (G12D) = KRAS (G12D) (Homo sapiens, UniProt P01116, G12D); experiment: EC50 for KRAS (G12D); assay type: binding

By UniProt entry, the sequences of proteins in these tests, tags left out.
UniProt P01116, whole entry: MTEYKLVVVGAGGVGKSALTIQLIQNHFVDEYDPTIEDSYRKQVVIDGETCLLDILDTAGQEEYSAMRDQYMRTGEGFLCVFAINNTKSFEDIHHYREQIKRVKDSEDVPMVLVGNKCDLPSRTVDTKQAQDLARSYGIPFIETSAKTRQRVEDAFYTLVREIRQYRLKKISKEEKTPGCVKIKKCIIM
UniProt P01116, whole entry G12D: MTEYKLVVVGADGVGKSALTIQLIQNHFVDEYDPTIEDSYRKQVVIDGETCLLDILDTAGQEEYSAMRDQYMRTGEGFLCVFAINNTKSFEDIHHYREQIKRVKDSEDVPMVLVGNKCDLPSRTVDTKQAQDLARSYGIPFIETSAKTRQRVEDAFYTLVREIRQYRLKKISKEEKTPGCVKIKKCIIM

CC(C)C[C@@H]1NC(=O)[C@@H](N)Cc2cn(nn2)CC[C@@H](C(N)=O)NC(=O)[C@H](Cc2ccc(NC(=N)N)cc2)NC(=O)CNC(=O)[C@H](CCCNC(=N)N)NC1=O [LRGGnf-Az2] (H-[Pra]LRG[Phe(4-guanidino)][Aha]-NH2; triazole 1-6; N-terminus and C-terminus assumed)
EC50 (KRAS (WT)): 900 nM
EC50 (KRAS (G12D)): 600 nM

Reference: US11414460B2, “KRAS-specific capture agents, compositions, and methods of making and using” (Institute for Systems Biology, priority 2019, dated 2022)
